# Results of single-concentration screens

The values are deposited in ChEMBL (CHEMBL3988442, “University of Dundee, Small-Polar-MMV Screening Library” (2021)).

Each number is a percent effect as filed.
How 0% and 100% were set is not recorded. Most values in the screen are low, and negative values occur.
Compounds were drawn at random from those tested, without regard to their results.

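Whole-parasite assay of Trypanosoma brucei over 72 hours; the read-out is not stated. Tested at 30 µM. Direction is inferred from retests: higher values go with stronger inhibition. Values scatter widely below zero; nearly all retest evidence comes from the higher of the two concentrations used. About 64,000 compounds were tested under these conditions; 1.5% (about 940) showed 50% or more at least once.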

* COCCN(C)C[C@@H]1CN(C(=O)c2cccc(C#N)c2)C[C@@H]1CO | -26.54%
* Cc1cccc(C)c1NC(=O)NCC1CCCN(C2CCOCC2)C1 (stereo not shown) | -39.09%
* CCC[C@@H](NC(N)=O)C(=O)N1Cc2ccccc2-c2ccccc2C1 | -26.98%
* CN1C[C@@H](C(=O)NCC(F)(F)F)[C@@]2(CCc3ccccc3C(=O)N2)C1 | 3.12%
* CC(C(=O)N(C)C)N1CCc2onc(-c3cccc(F)c3)c2C1 (stereo not shown) | -18.33%
* O=C(NCc1nc(C2CCCCC2)no1)C1CC(=O)N(C2CCCC2)C1 (stereo not shown) | -1.461%
* O=C(O)C(F)(F)F.O=C(O)C(F)(F)F.[H][C@@]12COC[C@@H](CC(=O)NCC3CC3)[C@]1([H])CN(Cc1cccnc1)C2 | -16.86%
* Cc1cc(=O)[nH]c(-n2nc(C)c(CCC(=O)NCC(C)C)c2C)n1 | -14.29%
* Cc1ccsc1C(=O)N1CCC2(CC(C(=O)N(C)C(C)C)=NO2)C1 (stereo not shown) | -54.71%
* O=C(Nc1ccc2c(c1)C(=O)NC2=O)c1cccs1 | -48.62%
* Cc1[nH]ncc1C(=O)N1CCOC(c2cccs2)C1 (stereo not shown) | -28.19%
* O=S(=O)(NCC1CCOc2ccccc2C1)N1CCOCC1 (stereo not shown) | 12.35%
* [H][C@@]12CS(=O)(=O)C[C@]1([H])N(C(=O)c1cc(C(C)C)no1)CCN2CC=C(C)C | 4.266%
* COC(=O)CCc1c(C)nc2cc(O)nn2c1C | 37.13%
* CC(NC(=O)CNS(C)(=O)=O)c1ccccc1Oc1ccccc1 (stereo not shown) | 4.916%
* [H][C@]12CC[C@]([H])(CN(Cc3ccccc3)C1)N(C(=O)OCC)C2 | 9.174%
* Cc1oc(C(=O)O)cc1S(=O)(=O)Nc1ccc(Br)cc1Cl | -14.52%
* Cc1ccc(NC2CCN(C(=O)c3nccc4ccccc34)CC2)nn1 | 6.626%
* O=C(O)C(F)(F)F.[H][C@@]12CCN(Cc3ccsc3)C[C@]1([H])[C@H](C(=O)N1CCCC1)CCO2 | -368.8%
* CC1CCc2nn(CCNC(=O)C3CCCC3)c(=O)cc2C1 (stereo not shown) | -10.29%
* Cc1ccc(N2CC3(CCN(C(=O)c4ccoc4)C3)C2)nn1 | 5.562%
* [H][C@]12CCN(C(=O)c3ccc4ccccc4c3)C[C@@]1([H])OCCN(C(C)=O)C2 | -9.364%
* C[C@@H]1CN(CCC(=O)NCc2ccccc2Cl)CC[C@@]1(O)C1CCC1 | 17.07%
* CS(=O)(=O)N1CCN(c2cnnc(N3CCCC3)c2)CC1 | -0.775%
* COc1ccccc1C1(CNCc2ccc([S+](C)[O-])cc2)CC1 (stereo not shown) | 6.648%
* COc1ccc(N2CCN(C(=O)Cn3nccc3C)CC2(C)C)cc1 | -20.94%
* Fc1ccc(C(CNc2ccncn2)N2CCCC2)cc1 (stereo not shown) | -24.89%
* CCSc1ccccc1C(=O)NCCn1nc(-n2cncn2)ccc1=O | -8.693%
* [H][C@@]12C[C@@H](Oc3cncnc3)CN1CCN(C(=O)c1ccc(C)nc1)C2 | -0.1658%
* CN(C)c1ccc(NC(=O)N2CCCC2c2ccsc2)cn1 (stereo not shown) | -719.3%

The last 2 entries again:

structure	effect
[H][C@@]12C[C@@H](Oc3cncnc3)CN1CCN(C(=O)c1ccc(C)nc1)C2	-0.1658%
CN(C)c1ccc(NC(=O)N2CCCC2c2ccsc2)cn1 (stereo not shown)	-719.3%